The values below are quoted from earlier work in EP2325172A1 (Laboratorios del. Dr. Esteve, S.A., priority 2009, dated 2011).

In brackets after ≈: the same amount, converted by molar mass.

Turning to `Cc1ccc(-c2cc(C(F)(F)F)nn2-c2ccc(S(N)(=O)=O)cc2)cc1` [celecoxib, 4-[5-(4-methylphenyl)-3-(trifluoromethyl)pyrazol-1-yl]benzenesulfonamide], the water solubility was 7 µg/mL (≈ 18.4 µM).
